{"source": "patent US20020031520A1", "about": "“PREVENTION AND TREATMENT OF HEPATOCELLULAR CANCER” (priority 1997, published 2002)", "key": {"[1]": {"biological_target": "T1, HLA A2.1 (Homo sapiens, UniProt P04439, D140Y/D185E/D98H/E176V/E277Q/G131W/G231S/I119V/I121R/I166T/I218V/L300P/L318F/N151K/N90K/P208A/P217A/Q86G/Q94H/R138H/R169H/T345S)", "test": "EBV lymphoblastoid cell off-kinetics assay", "format": "binding", "conditions": "pulsed at 200 μM for 1 hour, followed 0, 2, 4 and 6 hours at 37° C.; (n.s.) = not stable", "excerpt": "The cells were washed at the end of each time point and stained for HLA A2 with the BB7.2 antibody."}, "[2]": {"biological_target": "T1, HLA A2.1", "test": "T2 cell stabilization assay", "format": "binding", "conditions": "peptide tested 0.1 μM-100 μM; flow cytometry with BB7.2; (n.s.) = not stable"}}, "note": "Part of at least one peptide drawing is inferred or uncertain, most often the ends. Where no end group is shown, it is not given here.", "data": [{"sequence": "LLNQHACAV [AFP3]", "values": [{"measurement": "Time of Peptide Stability on Lymphoblastoid Cells", "setting": "[1]", "result": "(n.s.)"}, {"measurement": "Minimum Concentration of Peptide to Stabilize A2 on T2 cells", "setting": "[2]", "result": 0.5, "unit": "µM"}]}]}
